Drawing on publication doi:10.1101/2021.03.10.434793, this text covers binding for 1 molecule.

These are yes or no findings as the source states them, for the method shown. In cells and extracts the contact can be indirect. Some results given as binding are weak or reduced against the parent protein; the word gives no strength. Where a sequence is shown, tags or fusion partners need not be part of it.

For the test, the target named is T1, RanGAP1, non-sumoylated form, endogenous (human (endogenous in Jurkat)) (UniProt P46060).
T1 sequence: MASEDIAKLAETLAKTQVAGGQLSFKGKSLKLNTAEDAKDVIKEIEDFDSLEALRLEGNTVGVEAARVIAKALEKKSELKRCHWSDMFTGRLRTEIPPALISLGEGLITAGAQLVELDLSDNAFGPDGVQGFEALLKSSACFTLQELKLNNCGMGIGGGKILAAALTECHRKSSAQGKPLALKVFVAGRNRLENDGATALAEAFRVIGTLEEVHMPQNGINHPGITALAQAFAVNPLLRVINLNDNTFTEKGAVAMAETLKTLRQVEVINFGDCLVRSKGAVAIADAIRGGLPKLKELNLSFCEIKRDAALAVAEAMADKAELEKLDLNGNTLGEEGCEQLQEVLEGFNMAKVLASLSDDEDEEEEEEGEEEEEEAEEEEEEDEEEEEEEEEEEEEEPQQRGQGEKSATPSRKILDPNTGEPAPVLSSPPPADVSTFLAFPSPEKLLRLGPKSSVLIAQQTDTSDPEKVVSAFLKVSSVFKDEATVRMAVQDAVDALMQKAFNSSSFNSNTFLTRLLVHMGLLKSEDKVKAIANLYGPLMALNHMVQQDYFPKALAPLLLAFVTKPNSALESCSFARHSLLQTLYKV
The test can be described thus: co-IP.

B1: c-Myc-tagged PKC-θ-A148E (enzyme, UniProt Q04759 1-706)
chain: MSPFLRIGLSNFDCGSCQSCQGEAVNPYCAVLVKEYVESENGQMYIQKKPTMYPPWDSTFDAHINKGRVMQIIVKGKNVDLISETTVELYSLAERCRKNNGKTEIWLELKPQGRMLMNARYFLEMSDTKDMNEFETEGFFALHQRRGEIKQAKVHHVKCHEFTATFFPQPTFCSVCHEFVWGLNKQGYQCRQCNAAIHKKCIDKVIAKCTGSAINSRETMFHKERFKIDMPHRFKVYNYKSPTFCEHCGTLLWGLARQGLKCDACGMNVHHRCQTKVANLCGINQKLMAEALAMIESTQQARCLRDTEQIFREGPVEIGLPCSIKNEARPPCLPTPGKREPQGISWESPLDEVDKMCHLPEPELNKERPSLQIKLKIEDFILHKMLGKGSFGKVFLAEFKKTNQFFAIKALKKDVVLMDDDVECTMVEKRVLSLAWEHPFLTHMFCTFQTKENLFFVMEYLNGGDLMYHIQSCHKFDLSRATFYAAEIILGLQFLHSKGIVYRDLKLDNILLDKDGHIKIADFGMCKENMLGDAKTNTFCGTPDYIAPEILLGQKYNHSVDWWSFGVLLYEMLIGQSPFHGQDEEELFHSIRMDNPFYPRWLEKEAKDLLVKLFVREPEKRLGVRGDIRQHPLFREINWEELERKEIDPPFRPKVKSPFDCSNFDKEFLNEKPRLSFADRALINSMDQNMFRNFSFMNPGMERLIS
In the case of B1, the binding entry is “binds”.
